{"sequences": {"note": "Amino acid sequences for entries named in this document (tags omitted). A change or cut given only in a name is not applied to a line headed by its entry.", "UniProt Q09200": "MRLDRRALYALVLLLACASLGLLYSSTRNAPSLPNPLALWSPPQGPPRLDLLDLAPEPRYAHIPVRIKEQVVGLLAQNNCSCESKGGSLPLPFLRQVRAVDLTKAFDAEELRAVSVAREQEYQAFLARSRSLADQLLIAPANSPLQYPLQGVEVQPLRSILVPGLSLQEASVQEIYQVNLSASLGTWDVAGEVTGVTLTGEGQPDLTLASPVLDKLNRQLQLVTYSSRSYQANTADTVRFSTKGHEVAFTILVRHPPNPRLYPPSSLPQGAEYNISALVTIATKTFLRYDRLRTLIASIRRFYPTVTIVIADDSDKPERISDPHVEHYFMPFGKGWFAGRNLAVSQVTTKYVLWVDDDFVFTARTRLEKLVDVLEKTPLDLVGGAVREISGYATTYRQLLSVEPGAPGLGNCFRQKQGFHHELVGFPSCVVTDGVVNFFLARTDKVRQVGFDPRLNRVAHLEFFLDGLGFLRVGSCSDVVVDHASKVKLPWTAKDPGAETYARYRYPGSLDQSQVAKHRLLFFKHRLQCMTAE", "UniProt Q3TH73": "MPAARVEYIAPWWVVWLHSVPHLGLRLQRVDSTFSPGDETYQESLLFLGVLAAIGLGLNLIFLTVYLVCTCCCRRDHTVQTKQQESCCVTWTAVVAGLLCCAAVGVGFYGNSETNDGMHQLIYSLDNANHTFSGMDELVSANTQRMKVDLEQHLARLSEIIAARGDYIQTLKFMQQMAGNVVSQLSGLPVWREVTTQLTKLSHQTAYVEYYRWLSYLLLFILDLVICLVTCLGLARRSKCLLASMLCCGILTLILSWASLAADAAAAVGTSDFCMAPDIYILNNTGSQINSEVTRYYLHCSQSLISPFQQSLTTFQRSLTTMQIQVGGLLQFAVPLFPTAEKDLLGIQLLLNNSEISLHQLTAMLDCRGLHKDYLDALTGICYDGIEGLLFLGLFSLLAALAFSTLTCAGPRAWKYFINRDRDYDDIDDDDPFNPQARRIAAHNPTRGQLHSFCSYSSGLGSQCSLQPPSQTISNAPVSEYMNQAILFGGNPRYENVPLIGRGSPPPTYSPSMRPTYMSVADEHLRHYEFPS", "UniProt Q3TDQ1": "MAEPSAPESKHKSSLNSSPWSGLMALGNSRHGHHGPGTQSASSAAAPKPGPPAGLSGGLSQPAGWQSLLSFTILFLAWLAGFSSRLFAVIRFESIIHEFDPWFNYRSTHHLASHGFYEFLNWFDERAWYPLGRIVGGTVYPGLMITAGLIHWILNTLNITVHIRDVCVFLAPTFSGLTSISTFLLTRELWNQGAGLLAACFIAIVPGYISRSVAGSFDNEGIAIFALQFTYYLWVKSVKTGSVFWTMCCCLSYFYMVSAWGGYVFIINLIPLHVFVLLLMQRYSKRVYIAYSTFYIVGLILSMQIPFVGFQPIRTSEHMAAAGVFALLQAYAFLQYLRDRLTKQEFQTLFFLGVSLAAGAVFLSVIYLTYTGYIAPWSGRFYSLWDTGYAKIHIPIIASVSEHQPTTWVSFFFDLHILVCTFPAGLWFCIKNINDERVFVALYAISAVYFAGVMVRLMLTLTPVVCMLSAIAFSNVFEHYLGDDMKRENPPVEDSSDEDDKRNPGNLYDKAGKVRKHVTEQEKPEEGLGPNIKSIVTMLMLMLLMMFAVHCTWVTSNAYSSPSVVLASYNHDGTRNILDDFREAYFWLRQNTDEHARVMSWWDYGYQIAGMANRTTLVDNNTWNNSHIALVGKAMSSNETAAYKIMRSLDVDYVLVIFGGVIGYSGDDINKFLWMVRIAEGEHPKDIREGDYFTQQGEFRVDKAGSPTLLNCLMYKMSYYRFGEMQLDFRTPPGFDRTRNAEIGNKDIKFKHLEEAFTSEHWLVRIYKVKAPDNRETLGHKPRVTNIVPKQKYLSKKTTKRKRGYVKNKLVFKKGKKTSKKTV", "UniProt Q05D44": "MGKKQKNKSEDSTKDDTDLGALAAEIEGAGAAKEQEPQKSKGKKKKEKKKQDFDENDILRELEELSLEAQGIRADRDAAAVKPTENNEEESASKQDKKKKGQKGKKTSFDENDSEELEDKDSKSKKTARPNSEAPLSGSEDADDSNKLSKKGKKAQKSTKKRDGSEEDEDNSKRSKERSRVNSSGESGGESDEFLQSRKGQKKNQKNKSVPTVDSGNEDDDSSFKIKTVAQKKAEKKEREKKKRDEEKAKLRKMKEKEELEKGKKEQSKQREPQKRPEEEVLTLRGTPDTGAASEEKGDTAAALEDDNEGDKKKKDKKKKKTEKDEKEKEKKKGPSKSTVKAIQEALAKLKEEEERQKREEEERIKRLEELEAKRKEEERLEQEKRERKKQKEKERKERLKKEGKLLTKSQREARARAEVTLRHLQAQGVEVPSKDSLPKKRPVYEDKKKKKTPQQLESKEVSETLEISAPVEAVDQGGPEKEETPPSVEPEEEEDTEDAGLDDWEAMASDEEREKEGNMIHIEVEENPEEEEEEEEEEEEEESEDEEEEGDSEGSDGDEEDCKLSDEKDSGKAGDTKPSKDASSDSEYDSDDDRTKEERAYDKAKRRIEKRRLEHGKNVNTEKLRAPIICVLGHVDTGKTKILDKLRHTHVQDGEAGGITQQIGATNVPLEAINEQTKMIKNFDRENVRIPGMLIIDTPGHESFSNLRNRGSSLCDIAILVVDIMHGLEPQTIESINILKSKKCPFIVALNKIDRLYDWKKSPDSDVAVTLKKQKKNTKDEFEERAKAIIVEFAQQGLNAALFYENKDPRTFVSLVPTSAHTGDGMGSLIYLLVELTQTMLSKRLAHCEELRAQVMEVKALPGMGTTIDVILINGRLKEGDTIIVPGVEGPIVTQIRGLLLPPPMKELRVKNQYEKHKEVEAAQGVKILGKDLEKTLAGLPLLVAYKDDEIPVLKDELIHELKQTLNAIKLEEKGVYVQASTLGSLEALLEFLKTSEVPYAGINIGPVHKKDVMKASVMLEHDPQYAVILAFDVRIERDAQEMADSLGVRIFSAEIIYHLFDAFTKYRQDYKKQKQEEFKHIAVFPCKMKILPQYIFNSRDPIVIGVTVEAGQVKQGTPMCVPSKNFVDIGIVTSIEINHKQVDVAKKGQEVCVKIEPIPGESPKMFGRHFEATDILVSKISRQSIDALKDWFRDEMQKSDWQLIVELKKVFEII", "UniProt Q3T9M1": "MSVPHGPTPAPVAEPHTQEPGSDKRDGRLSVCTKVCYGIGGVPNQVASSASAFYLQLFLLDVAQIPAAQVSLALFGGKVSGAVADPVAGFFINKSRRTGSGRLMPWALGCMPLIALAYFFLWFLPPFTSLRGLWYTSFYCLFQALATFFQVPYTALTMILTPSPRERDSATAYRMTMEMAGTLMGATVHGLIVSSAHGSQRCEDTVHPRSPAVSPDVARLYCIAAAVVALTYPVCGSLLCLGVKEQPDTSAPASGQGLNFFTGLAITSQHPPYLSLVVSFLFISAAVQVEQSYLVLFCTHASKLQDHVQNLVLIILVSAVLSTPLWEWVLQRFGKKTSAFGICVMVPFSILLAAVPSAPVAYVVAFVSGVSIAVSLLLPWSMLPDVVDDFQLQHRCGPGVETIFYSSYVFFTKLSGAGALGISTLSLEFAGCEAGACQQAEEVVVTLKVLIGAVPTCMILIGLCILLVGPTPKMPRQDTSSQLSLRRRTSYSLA", "UniProt Q3TPJ7": "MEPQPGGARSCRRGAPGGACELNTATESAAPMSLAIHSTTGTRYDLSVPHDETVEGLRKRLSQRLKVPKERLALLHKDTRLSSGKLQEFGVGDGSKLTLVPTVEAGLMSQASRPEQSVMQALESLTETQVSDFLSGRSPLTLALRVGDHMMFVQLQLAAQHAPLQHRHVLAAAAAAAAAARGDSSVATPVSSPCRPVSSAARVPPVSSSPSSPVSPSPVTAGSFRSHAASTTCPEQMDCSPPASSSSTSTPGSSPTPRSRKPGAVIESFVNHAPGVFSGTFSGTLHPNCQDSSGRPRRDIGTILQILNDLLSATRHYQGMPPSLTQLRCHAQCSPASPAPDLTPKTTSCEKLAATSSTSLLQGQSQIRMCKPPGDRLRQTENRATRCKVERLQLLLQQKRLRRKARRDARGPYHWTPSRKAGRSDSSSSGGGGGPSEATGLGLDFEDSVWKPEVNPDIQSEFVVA", "UniProt Q3TNH5": "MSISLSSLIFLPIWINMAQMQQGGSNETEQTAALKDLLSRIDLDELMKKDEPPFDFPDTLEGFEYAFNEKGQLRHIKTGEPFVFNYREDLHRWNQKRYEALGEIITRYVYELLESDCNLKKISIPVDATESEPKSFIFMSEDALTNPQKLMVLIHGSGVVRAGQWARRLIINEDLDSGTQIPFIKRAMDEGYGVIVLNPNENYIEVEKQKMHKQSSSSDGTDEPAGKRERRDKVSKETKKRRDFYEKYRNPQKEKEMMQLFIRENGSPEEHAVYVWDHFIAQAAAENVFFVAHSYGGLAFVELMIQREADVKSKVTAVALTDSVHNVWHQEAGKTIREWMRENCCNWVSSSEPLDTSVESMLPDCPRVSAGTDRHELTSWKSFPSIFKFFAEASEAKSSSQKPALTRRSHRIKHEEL", "UniProt Q3TNA1": "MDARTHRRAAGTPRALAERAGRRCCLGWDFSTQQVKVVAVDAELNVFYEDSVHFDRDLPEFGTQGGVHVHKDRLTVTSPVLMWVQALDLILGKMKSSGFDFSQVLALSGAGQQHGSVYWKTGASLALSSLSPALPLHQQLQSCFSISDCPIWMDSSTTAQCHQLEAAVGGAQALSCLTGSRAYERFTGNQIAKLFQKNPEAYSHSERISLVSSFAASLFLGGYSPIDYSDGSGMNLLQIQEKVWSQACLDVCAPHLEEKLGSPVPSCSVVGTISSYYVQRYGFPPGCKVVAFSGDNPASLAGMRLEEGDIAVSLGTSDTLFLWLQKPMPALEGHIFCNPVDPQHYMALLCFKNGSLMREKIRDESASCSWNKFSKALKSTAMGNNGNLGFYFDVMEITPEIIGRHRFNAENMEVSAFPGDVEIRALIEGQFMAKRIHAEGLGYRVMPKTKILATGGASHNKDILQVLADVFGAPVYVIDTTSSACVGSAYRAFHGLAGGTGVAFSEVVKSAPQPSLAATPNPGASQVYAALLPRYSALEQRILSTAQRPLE", "UniProt Q3TFD2": "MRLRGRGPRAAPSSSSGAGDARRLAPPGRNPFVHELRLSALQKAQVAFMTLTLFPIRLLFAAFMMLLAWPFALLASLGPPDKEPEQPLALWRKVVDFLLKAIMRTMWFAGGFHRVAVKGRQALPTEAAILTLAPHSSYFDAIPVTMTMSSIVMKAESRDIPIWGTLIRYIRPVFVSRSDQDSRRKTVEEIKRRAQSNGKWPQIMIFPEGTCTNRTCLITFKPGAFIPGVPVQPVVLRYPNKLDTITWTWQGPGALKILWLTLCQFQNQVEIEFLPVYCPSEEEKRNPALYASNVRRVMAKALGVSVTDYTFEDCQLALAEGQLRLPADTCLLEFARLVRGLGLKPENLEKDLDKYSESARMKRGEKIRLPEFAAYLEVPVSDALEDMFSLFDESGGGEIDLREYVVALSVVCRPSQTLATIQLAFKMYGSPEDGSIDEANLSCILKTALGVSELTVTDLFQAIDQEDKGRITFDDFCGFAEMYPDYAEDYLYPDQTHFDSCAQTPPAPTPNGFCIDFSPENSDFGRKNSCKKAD", "UniProt Q3TTA7, whole entry": "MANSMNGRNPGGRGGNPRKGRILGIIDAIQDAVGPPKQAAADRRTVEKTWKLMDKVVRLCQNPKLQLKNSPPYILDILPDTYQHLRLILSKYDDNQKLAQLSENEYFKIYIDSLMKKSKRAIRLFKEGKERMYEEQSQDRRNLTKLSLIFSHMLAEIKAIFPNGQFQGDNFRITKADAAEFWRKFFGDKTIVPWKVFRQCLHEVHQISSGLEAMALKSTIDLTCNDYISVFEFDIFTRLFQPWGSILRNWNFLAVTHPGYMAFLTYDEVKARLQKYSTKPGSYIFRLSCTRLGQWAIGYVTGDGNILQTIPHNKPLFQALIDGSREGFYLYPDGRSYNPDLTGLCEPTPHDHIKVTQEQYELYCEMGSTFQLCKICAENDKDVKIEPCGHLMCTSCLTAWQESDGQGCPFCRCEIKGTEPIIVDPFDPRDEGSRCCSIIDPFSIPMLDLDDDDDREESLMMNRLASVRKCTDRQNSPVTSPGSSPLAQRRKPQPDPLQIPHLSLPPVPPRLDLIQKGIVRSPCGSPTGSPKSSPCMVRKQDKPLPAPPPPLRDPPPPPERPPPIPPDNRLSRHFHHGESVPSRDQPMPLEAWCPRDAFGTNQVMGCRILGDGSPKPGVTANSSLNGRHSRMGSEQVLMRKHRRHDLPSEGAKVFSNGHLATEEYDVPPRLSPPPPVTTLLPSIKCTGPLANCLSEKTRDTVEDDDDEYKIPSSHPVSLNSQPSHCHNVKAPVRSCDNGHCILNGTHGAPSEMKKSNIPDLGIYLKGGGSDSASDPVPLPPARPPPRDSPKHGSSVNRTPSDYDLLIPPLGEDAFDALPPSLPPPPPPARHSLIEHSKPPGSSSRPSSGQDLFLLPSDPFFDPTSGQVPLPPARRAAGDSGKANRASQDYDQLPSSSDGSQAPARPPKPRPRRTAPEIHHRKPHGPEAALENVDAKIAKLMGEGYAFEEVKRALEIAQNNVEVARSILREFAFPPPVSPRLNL"}, "source": "the supplement of paper PMC12819154", "about": "“High-throughput peptide-centric local stability assay extends protein–ligand identification to membrane proteins, tissues and bacteria” (Nature Structural & Molecular Biology, 2025)", "note": "The list shows a part of the results. Most entries show no effect beyond the scatter of the controls.", "data": [{"compound": "CN[C@@H]1C[C@H]2O[C@@](C)([C@@H]1OC)n1c3ccccc3c3c4c(c5c6ccccc6n2c5c31)C(=O)NC4 [staurosporine]", "test": "log2 fold change of tryptic peptide abundance, ligand vs vehicle (limited proteolysis) (log2 ratio); higher = more trypsin-susceptible (destabilized)", "conditions": "ligand concentration: 20 uM; sample: mouse liver crude lysate; replicate design: treated separately", "values": [{"target": "UniProt Q3TRM4 (peptide sequence: VVSTSGTEDTSK, peptide start residue: 354)", "log2 fold change": -0.128}, {"target": "UniProt Q3TV65 (peptide sequence: MDKVPVPIRYCMLGSR, peptide start residue: 217)", "log2 fold change": -0.192}, {"target": "UniProt Q09200 (peptide sequence: YRYPGSLDQSQVAK, peptide start residue: 504)", "log2 fold change": 0.175}, {"target": "UniProt Q02780 (peptide sequence: RSLPSTSSTSSTK, peptide start residue: 287)", "log2 fold change": 0.756}, {"target": "UniProt Q3U1J4 (peptide sequence: TVPLYESPR, peptide start residue: 714)", "log2 fold change": 0.251}, {"target": "UniProt Q3TH73 (peptide sequence: YENVPLIGR, peptide start residue: 494)", "log2 fold change": -0.17}, {"target": "UniProt Q3TDQ1 (peptide sequence: IAEGEHPK, peptide start residue: 678)", "log2 fold change": -0.156}, {"target": "UniProt Q08501 (peptide sequence: RSPYHSIADVCK, peptide start residue: 418)", "log2 fold change": 0.182}, {"target": "UniProt Q06194 (peptide sequence: DNILSMENDR, peptide start residue: 983)", "log2 fold change": 0.0974}, {"target": "UniProt Q08879 (peptide sequence: TCVDINECQRYPGR, peptide start residue: 398)", "log2 fold change": 0.769}, {"target": "UniProt Q05D44 (peptide sequence: NVNTEKLR, peptide start residue: 619)", "log2 fold change": -1.05}, {"target": "UniProt Q3T9M1 (peptide sequence: SPAVSPDVAR, peptide start residue: 210)", "log2 fold change": -0.0338}, {"target": "UniProt Q3TVA9 (peptide sequence: EIEEARK, peptide start residue: 1034)", "log2 fold change": 0.133}, {"target": "UniProt Q3TPJ7 (peptide sequence: HVLAAAAAAAAAAR, peptide start residue: 168)", "log2 fold change": 0.601}, {"target": "UniProt Q0VG62 (peptide sequence: KINIMNHEK, peptide start residue: 38)", "log2 fold change": -0.341}, {"target": "UniProt Q3TNH5 (peptide sequence: QSSSSDGTDEPAGKR, peptide start residue: 214)", "log2 fold change": -0.378}, {"target": "UniProt Q2TBA3 (peptide sequence: QLAELAGSR, peptide start residue: 62)", "log2 fold change": -0.125}, {"target": "UniProt Q3TMV7 (peptide sequence: ADYVGSALGPDWHGGLALK, peptide start residue: 225)", "log2 fold change": -0.372}, {"target": "UniProt Q1WG82 (peptide sequence: RCASCRTQR, peptide start residue: 196)", "log2 fold change": -0.0133}, {"target": "UniProt Q04859 (peptide sequence: RPTASQALK, peptide start residue: 272)", "log2 fold change": -0.501}, {"target": "UniProt Q3TQB2 (peptide sequence: VWPHLVQR, peptide start residue: 388)", "log2 fold change": 0.45}, {"target": "UniProt Q2YFS3 (peptide sequence: AEIPAREPLETSEK, peptide start residue: 230)", "log2 fold change": -0.0279}, {"target": "UniProt Q3TNA1 (peptide sequence: ILATGGASHNK, peptide start residue: 451)", "log2 fold change": -0.595}, {"target": "UniProt Q2PFD7 (peptide sequence: EHLEENFAIQGDKER, peptide start residue: 385)", "log2 fold change": -0.285}, {"target": "UniProt Q3TFD2 (peptide sequence: AAPSSSSGAGDAR, peptide start residue: 10)", "log2 fold change": -0.0121}, {"target": "UniProt Q3TTA7 (peptide sequence: TVEKTWK, peptide start residue: 174)", "log2 fold change": -0.244}, {"target": "UniProt Q283N4 (peptide sequence: CHPDLAGR, peptide start residue: 66)", "log2 fold change": -0.126}, {"target": "UniProt Q3T9X0 (peptide sequence: THAEISQAFAK, peptide start residue: 487)", "log2 fold change": -0.286}, {"target": "UniProt Q07076 (peptide sequence: DLEKDIR, peptide start residue: 281)", "log2 fold change": -0.513}, {"target": "UniProt Q3TDE8 (peptide sequence: EQRPEAHLPEEGEGAKPWR, peptide start residue: 6)", "log2 fold change": 0.302}, {"target": "UniProt Q03401 (peptide sequence: RMVSPSGSDLLK, peptide start residue: 51)", "log2 fold change": 0.433}]}]}
